For 1 molecule, binding results are on record in article PMC6134688, “Identification of a novel site of interaction between ataxin-3 and the amyloid aggregation inhibitor polyglutamine binding peptide 1” (European Journal of Mass Spectrometry (Chichester, England), 2017).

The chains behind the UniProt entries cited, without tags or fusion partners. Residues count along the entry.
Josephin domain alone (ataxin-3 residues 1-182) (P54252, residues 1-182): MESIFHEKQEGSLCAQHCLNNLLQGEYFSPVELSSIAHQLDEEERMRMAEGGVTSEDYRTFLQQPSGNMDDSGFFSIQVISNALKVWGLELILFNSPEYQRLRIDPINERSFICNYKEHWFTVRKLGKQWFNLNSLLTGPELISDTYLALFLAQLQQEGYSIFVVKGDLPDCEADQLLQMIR
UIM peptide 222-264 of ataxin-3 (P54252, residues 222-264): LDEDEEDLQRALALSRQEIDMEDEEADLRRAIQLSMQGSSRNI
UIM peptide 222-241 of ataxin-3 (P54252, residues 222-241): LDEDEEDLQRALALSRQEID

Test [1] has as its target Josephin domain alone (ataxin-3 residues 1-182) (UniProt P54252). In words: native MS; nanoESI-MS; 10 μM protein and 50 μM QBP1 (five-fold molar excess) in 250 mM ammonium hydrogen carbonate, 1 mM dithiothreitol, pH 7.8; both purified.
Test [2] shares this target. The test is described as follows: 1H T1rho NMR (signal of the peptide); 50 μM QBP1 and 10 μM protein in 250 mM ammonium hydrogen carbonate, 10% (v/v) D2O; 100 ms spin-lock; methyl region 0.45-0.75 ppm integrated; both purified.
Test [3] addresses UIM peptide 222-264 of ataxin-3 (UniProt P54252). The test is described as follows: native MS; nanoESI-MS; equimolar QBP1 (for the TEV-cleaved MBP fusion the ratio is not told); both purified.
Test [4] deals with UIM peptide 222-241 of ataxin-3 (UniProt P54252). Described as above.

No constants are given. Whether binding was seen depends on the method and setting.

Regarding SNWKWWPGIFD (N-terminally acetylated) [polyQ binding peptide 1], the binding entry is “no binding (tested: 10 μM protein and 50 μM QBP1)” in test [1]; “no binding (tested: 50 μM QBP1 and 10 μM protein)” in test [2]; “no binding” in test [3]; “no binding” in test [4].
